PubChem BioAssay AID1259424 | University of Nebraska Medical Center, 2018

- Purpose: 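Seek colon cancer survival genes behaving like KSR1, using a six-gene signature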 (primary screen)
- System: human HCT116 colon cancer cells
- Reagents: siRNA pool against human genes, 50 nM
- Measurement: 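Log2 levels of six mRNAs (branched-DNA multiplex), adjusted by two reference genes and the non-targeting median, then scored against the average KSR1 knockdown pattern as Pearson r and euclidean distance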
- Direction: mean correlation with KSR1 profile: higher = expression change more like KSR1 knockdown
The whole screen tested about 14,000 reagents; shown is an unselected part. 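Higher correlation or smaller distance means closer resemblance to KSR1 loss; control wells, including KSR1 knockdowns, recur on many plates.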 Further read-outs or replicates are left out here. No sequences are given here. Not given: the time to read-out.

| target gene | PubChem SID | mean correlation with KSR1 profile |
| --- | --- | --- |
| NAT1 (N-acetyltransferase 1) | SID363991962 | -0.857 |
| CLEC4M (C-type lectin domain family 4 member M) | SID363998694 | -0.133 |
| TENM1 (teneurin transmembrane protein 1) | SID363998690 | 0.242 |
| MACF1 (microtubule actin crosslinking factor 1) | SID363998039 | 0.348 |
| RNF2 (ring finger protein 2) | SID363997908 | 0.171 |
| SCRN3 (secernin 3) | SID364002889 | 0.614 |
| AR (androgen receptor) | SID363991383 | -0.0396 |
| EBAG9 (estrogen receptor binding site associated antigen 9) | SID363995215 | -0.386 |
| CHRM2 (cholinergic receptor muscarinic 2) | SID363992034 | 0.579 |

A few values from above.
Under “mean correlation with KSR1 profile”, NAT1 (N-acetyltransferase 1) [SID363991962] reads -0.857
Value of SCRN3 (secernin 3) [SID364002889] in “mean correlation with KSR1 profile”: 0.614

The results go on.
| target gene | PubChem SID | mean correlation with KSR1 profile |
| --- | --- | --- |
| GLT8D1 (glycosyltransferase 8 domain containing 1) | SID364001079 | 0.619 |
| TOPORS | SID363996680 | -0.15 |
| FGF22 (fibroblast growth factor 22) | SID364001741 | 0.0114 |
| C19orf53 (chromosome 19 open reading frame 53) | SID363998573 | -0.2 |
| FBN3 (fibrillin 3) | SID364003989 | 0.548 |
| KCNA3 (potassium voltage-gated channel subfamily A member 3) | SID363993432 | -0.527 |
| CACNG5 (calcium voltage-gated channel auxiliary subunit gamma 5) | SID363998825 | 0.405 |
| CEBPZ (CCAAT enhancer binding protein zeta) | SID363996641 | 0.0473 |
| DCLK2 (doublecortin like kinase 2) | SID364004730 | 0.247 |
| RBCK1 (RANBP2-type and C3HC4-type zinc finger containing 1) | SID363997270 | -0.548 |
| NAA60 (N-alpha-acetyltransferase 60, NatF catalytic subunit) | SID364003108 | -0.409 |
